In the supplement of paper PMC6411743:
± gives the standard deviation of the averaged measurements. Only a part is listed here, and it is no random draw.

Legend:
Test in all cases: NP40-soluble protein abundance relative to vehicle (solubility fold change) (ratio); higher = more soluble protein in presence of AMP-PNP
USP38 = target: T1, USP38 (UniProt Q8NB14)
T1 sequence (whole entry): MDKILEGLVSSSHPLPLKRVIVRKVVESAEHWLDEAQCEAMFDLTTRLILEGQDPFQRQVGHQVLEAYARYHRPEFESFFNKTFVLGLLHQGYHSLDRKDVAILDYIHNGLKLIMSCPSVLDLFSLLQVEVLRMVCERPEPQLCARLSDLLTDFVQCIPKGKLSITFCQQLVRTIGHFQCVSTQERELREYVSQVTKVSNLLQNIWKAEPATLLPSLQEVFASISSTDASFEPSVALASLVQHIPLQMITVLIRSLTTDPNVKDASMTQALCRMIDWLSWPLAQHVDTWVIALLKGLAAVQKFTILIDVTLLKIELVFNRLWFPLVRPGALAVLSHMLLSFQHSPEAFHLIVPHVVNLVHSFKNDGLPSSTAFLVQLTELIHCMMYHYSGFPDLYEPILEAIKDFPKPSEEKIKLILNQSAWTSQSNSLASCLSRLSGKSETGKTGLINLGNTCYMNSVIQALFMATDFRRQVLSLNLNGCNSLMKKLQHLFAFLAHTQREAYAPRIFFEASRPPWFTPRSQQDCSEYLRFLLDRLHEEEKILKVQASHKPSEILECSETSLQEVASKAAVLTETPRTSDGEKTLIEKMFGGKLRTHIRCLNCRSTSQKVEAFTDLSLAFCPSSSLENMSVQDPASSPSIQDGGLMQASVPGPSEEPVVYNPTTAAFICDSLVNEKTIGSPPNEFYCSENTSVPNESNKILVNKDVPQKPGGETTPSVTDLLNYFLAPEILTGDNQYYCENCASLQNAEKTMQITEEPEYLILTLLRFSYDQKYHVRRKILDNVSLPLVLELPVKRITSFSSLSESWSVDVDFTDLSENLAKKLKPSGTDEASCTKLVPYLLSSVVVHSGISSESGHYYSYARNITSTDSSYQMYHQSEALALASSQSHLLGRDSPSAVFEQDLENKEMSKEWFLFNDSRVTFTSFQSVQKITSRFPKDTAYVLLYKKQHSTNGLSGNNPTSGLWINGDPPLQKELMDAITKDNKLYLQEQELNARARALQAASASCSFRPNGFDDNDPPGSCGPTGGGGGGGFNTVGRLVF
In short: (§1)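 Jurkat crude lysate prepared with a Dounce homogeniser was treated at eight concentrations spanning 0.1 to 10 mM, 10 min at room temperature then 3 min at 37 °C. Solubilisation with 0.8% NP40 and benzonase and ultracentrifugation preceded TMT labelling of the supernatant for LC-MS/MS. Fold change against the detergent-processed vehicle was determined per replicate from vsn-normalised intensities, across three independent experiments.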

[1] = target: T2, UniProt Q86TB9 and related entries
T2 sequence (whole entry): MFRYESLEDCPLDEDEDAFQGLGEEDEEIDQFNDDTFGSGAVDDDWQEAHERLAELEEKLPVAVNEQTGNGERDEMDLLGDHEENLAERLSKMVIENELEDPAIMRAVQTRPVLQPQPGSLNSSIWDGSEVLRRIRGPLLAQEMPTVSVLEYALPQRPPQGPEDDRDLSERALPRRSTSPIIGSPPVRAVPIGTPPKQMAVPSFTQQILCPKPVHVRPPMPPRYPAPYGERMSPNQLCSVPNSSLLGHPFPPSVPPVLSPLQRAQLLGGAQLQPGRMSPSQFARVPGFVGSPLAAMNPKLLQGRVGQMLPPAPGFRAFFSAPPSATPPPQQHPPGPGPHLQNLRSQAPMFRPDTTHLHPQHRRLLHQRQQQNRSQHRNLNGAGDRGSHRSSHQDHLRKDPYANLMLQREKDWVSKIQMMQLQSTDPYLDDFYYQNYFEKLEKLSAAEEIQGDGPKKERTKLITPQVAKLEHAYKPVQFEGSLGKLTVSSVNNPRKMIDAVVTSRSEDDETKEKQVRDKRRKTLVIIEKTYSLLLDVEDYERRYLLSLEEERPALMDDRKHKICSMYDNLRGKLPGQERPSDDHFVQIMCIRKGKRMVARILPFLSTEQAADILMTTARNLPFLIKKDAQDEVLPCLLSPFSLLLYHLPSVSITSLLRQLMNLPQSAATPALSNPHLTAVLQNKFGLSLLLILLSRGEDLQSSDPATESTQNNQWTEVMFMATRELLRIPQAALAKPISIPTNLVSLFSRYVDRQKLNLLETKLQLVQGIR
In short: as §1

[2] = target: T3, UniProt Q86WA6 and related entries
T3 sequence (whole entry): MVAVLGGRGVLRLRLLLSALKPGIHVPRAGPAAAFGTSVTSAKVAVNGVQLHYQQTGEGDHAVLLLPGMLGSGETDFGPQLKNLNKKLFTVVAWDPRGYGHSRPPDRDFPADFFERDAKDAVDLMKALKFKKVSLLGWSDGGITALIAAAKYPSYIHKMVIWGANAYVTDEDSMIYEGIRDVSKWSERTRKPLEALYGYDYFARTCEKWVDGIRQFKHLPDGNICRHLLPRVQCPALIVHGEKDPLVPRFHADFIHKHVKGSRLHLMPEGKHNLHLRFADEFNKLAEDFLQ
In short: as §1

[3] = target: T4, UniProt Q86X53 and related entries
T4 sequence (whole entry): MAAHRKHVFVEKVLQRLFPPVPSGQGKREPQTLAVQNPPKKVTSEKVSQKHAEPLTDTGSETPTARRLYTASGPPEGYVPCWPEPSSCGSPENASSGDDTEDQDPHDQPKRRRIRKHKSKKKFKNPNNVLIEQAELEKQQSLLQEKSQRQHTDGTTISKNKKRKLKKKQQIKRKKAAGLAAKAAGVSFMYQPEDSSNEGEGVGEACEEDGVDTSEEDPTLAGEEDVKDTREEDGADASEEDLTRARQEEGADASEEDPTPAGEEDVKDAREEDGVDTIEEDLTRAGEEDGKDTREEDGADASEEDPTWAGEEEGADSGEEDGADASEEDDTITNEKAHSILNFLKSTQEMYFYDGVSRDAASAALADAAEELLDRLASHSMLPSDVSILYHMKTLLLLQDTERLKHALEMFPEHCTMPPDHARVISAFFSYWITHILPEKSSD
In short: as §1

[4] = target: T5, UniProt Q86YP4-2|Q86YP4-3|Q86YP4
T5 sequence (whole entry): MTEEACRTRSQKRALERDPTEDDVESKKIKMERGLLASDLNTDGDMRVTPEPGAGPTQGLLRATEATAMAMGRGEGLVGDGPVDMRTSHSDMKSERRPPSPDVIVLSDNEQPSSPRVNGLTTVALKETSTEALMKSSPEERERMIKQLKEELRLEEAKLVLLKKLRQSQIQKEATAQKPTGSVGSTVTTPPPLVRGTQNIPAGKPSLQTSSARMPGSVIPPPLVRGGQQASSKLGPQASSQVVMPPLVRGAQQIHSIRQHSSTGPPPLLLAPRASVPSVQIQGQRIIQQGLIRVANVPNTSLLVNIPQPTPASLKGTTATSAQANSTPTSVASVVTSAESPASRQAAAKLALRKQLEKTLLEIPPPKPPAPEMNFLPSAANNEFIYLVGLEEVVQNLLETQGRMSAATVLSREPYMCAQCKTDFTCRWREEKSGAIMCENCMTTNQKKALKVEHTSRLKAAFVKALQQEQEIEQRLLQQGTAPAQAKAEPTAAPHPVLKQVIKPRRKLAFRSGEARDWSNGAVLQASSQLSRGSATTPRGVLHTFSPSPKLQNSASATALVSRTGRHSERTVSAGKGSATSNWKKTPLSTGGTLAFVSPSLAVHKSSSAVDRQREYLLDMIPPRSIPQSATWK
In short: as §1

Work on `Nc1ncnc2c1ncn2[C@@H]1O[C@H](COP(=O)(O)OP(=O)(O)NP(=O)(O)O)[C@@H](O)[C@H]1O` [adenylyl imidodiphosphate] yielded an NP40-soluble protein abundance (USP38; concentration: 1mM) of 1.03 ± 0.022, an NP40-soluble protein abundance (USP38; concentration: 2mM) of 0.998 ± 0.03 and an NP40-soluble protein abundance (USP38; concentration: 4mM) of 1 ± 0.012. The NP40-soluble protein abundance (USP38; concentration: 6mM) was 1.01 ± 0.038, the NP40-soluble protein abundance (USP38; concentration: 8mM) was 1.02 ± 0.011 and the NP40-soluble protein abundance (USP38; concentration: 10mM) was 1.01 ± 0.035. For the same molecule, the NP40-soluble protein abundance ([1]; concentration: 1mM) was 1 ± 0.024, the NP40-soluble protein abundance ([1]; concentration: 2mM) was 1.02 ± 0.048 and the NP40-soluble protein abundance ([1]; concentration: 4mM) was 1.01 ± 0.051. For the same molecule, the NP40-soluble protein abundance ([1]; concentration: 6mM) was 1.07 ± 0.033, the NP40-soluble protein abundance ([1]; concentration: 8mM) was 1.06 ± 0.049 and the NP40-soluble protein abundance ([1]; concentration: 10mM) was 1.09 ± 0.033. For the same molecule, the NP40-soluble protein abundance ([2]; concentration: 1mM) was 0.986 ± 0.023, the NP40-soluble protein abundance ([2]; concentration: 2mM) was 0.983 ± 0.014 and the NP40-soluble protein abundance ([2]; concentration: 4mM) was 1 ± 0.039. For the same molecule, the NP40-soluble protein abundance ([2]; concentration: 6mM) was 0.974 ± 0.017, the NP40-soluble protein abundance ([2]; concentration: 8mM) was 0.9655 ± 0.0081 and the NP40-soluble protein abundance ([2]; concentration: 10mM) was 0.992 ± 0.031. The NP40-soluble protein abundance ([3]; concentration: 1mM) was 0.996 ± 0.016, the NP40-soluble protein abundance ([3]; concentration: 2mM) was 1.01 ± 0.045 and the NP40-soluble protein abundance ([3]; concentration: 4mM) was 1.03 ± 0.034. It also gave an NP40-soluble protein abundance ([3]; concentration: 6mM) of 1.05 ± 0.028, an NP40-soluble protein abundance ([3]; concentration: 8mM) of 1.05 ± 0.054 and an NP40-soluble protein abundance ([3]; concentration: 10mM) of 1.06 ± 0.057. It also gave an NP40-soluble protein abundance ([4]; concentration: 1mM) of 1.02 ± 0.054, an NP40-soluble protein abundance ([4]; concentration: 2mM) of 1.09 ± 0.018 and an NP40-soluble protein abundance ([4]; concentration: 4mM) of 1.07 ± 0.05. The NP40-soluble protein abundance ([4]; concentration: 6mM) was 1.06 ± 0.07, the NP40-soluble protein abundance ([4]; concentration: 8mM) was 1.06 ± 0.058 and the NP40-soluble protein abundance ([4]; concentration: 10mM) was 1.1 ± 0.071.
